Hit rate of the full screen: of about 53,000 sequences, about 3,700 (7%) were called active.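 How the source made its calls: active means gene knockdowns whose robust z-score for IL-1 alpha signal is at least 2 or at most -2, so actives lie on both sides; inactive means the rest.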 Some of the results follow.

The nature of the assay: Components of the Cytosolic LPS Sensing Pathway: Gene Identification via Genome-wide siRNA Screen.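 Further: robust z of the log signal after scaling to non-targeting control siRNA wells of the plate.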 The conditions noted are these: RAW264.7 macrophages, IL-1a HTRF, actives lie on both sides, screened at 100 nM (by protocol), cells primed 5 h with Pam3CSK4 first. In outline: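 Read-out: IL-1a HTRF on supernatant, divided by plate negative-control median ×100, log-transformed and converted to robust z-score. Cells were RAW264.7 given 100 nM siRNA, Pam3CSK4-primed 5 hours, then LipidA-transfected 24 hour.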
As to GGAUGAUGAGGAUGACUACTT against Trap1a, the z-score is inactive: 0.313.

Turning to GGUUAACUGAAUCAAAAAGTT against Pdhx, the z-score was inactive: 1.84.

Regarding GGAGGAACAAGUUGUGCCUTT against Gjd4, the z-score was inactive: 0.146.

As to GGUACAAAAUGGCUUGUUGTT against Tmem215, the z-score is active: 2.53.

In the case of GGACUUUCUUGAGGUAUUATT against Tbc1d19, the z-score is inactive: -1.27.

As to GCCCAAGAAUGUGCCUUAUTT against Olfr1278, the z-score was inactive: -0.578.

Consider GGUGACCUAGAACCUACAGTT against Map2k3os, for which the z-score was inactive: -0.0692.

As for GGCAACAUCCAAAAAUAAATT against Cers4, the z-score was inactive: -0.853.

Consider CGUGGCCGUUAGUUGUAAATT against Zbtb40, for which the z-score is inactive: 0.237.

In the case of GGAGAAAUAAGAAAUUUGGTT against Rpgrip1l, the z-score was inactive: 0.228.

Regarding GCGGAACCUAUAUAGGAAUTT against Zfp74, the z-score is inactive: -0.292.

Consider GGCAAAGUUCUCUUCCAUATT against Olfr914, for which the z-score was inactive: 0.0997.

Regarding GGAGAAAACAGGAAUUGUGTT against H2-Eb1, the z-score is inactive: -0.748.

GCUAUUUGUCCCUUAGCAGTT against Slc22a5: the z-score is inactive: 1.59.

In the case of CGAAUAUGGGAUCAAGAAATT against Nt5el, the z-score was inactive: -1.3.

On to GGUUGAGUGUUUAACUUAGTT against Trappc5, for which the z-score was inactive: -1.32.

Consider CCACACCUUCAAAGCGAGATT against L3mbtl4, for which the z-score was inactive: -0.104.

In the case of GCAAGAACCUAGAGUUAUUTT against Zfp105, the z-score was inactive: 0.225.

With GGAACAAGCAUACAGGUUCTT against Nphp1, the z-score is inactive: 1.85.

For GGCAACAGCAUCCUACUCUTT against Olfr652, the z-score is active: -2.12.

Consider GGCUAACCACAUUUGCUUCTT against Zic4, for which the z-score is inactive: 0.759.

GGAUGAGGAGAUAAAGUCUTT against Misp: the z-score was inactive: -0.981.

With GGUACUAAAUAUAAAUGGCTT against Igsf6, the z-score was inactive: 1.27.

Regarding CCCGCUAUUUGGUGCUAACTT against Amh, the z-score is active: 3.21.

With GCAACAAGCUGAUAGGGACTT against Otof, the z-score is inactive: 0.454.

In the case of GCCUACACCAGUCCUUUGATT against Baiap2l1, the z-score is inactive: 0.509.

In the case of CGACAAUCAACCUACCAGCTT against Cd68, the z-score is inactive: 0.418.

In the case of GGAAGGAUCCGUGAUGAAGTT against Lypd10, the z-score is inactive: -0.479.

GGAUUCCUACAGCUUCACGTT against Gm9732: the z-score was inactive: 1.16.

With CCUGAUAGUAUUUUACGAGTT against Catsperd, the z-score is inactive: -0.331.

Regarding CCUCACAGUAUUCGGCCGATT against Adamts2, the z-score is inactive: 1.3.

For GGAAUUCAUGUUUUCGCUUTT against Slc9a3r2, the z-score is inactive: 1.06.

Take GGAUUCAUAUGUGAUUGACTT against Flt4: the z-score was inactive: 1.6.

As to CCAGGGAUCUACAUCUACATT against Olfr1367, the z-score was inactive: 0.0288.

With GGGAGAUUCAUUUUCCCAGTT against Rnf43, the z-score was inactive: 0.0663.

With CCGUUUUGGUCACGUAUCATT against Olfr599, the z-score was inactive: -0.401.

As to GGAUAAGGGAAUCACUAUCTT against Ankrd24, the z-score is inactive: -0.331.

For the sequence GGAGGAGAGAUGGUAAUCCTT against Olfr729, the z-score is inactive: -0.185.

For GCAGAAACCGUAAAAGCCUTT against Lypla1, the z-score is inactive: -0.987.

Turning to GGGAGCAAACGAGAAGAUATT against Gjd2, the z-score is active: 4.09.

For the sequence GCGACCAUUUCGUUUUAGUTT against Frat1, the z-score was inactive: 1.07.

Take GCUGCCGUACAGUCUCUAATT against Harbi1: the z-score was inactive: 0.263.

In the case of CGAGACUCUAGAUAGACUGTT against Zswim3, the z-score is inactive: -1.29.

With GCUUCAGUGGCUACUCUUGTT against H2-M2, the z-score is inactive: 0.63.

As for GGUCUUCUACAACUCGGAATT against Sgpp1, the z-score is inactive: -0.146.

Regarding GGAGCUGUCUAUCACCUGGTT against Popdc2, the z-score is inactive: 0.646.

Consider GCUGCUGACUUAUAACUGGTT against Szt2, for which the z-score was inactive: 1.15.

On to GGCUCUUUGUUCAGUUUUUTT against Fxyd3, for which the z-score was active: 2.52.

GGAUGAGAAACCAUUUAAATT against Oas1f: the z-score is inactive: -1.08.

As to CCUGCGUUGACCAAUCAGATT against C2cd2l, the z-score was inactive: -1.26.

In the case of GCAGAUCAACUACGGGAAGTT against Slbp, the z-score was inactive: 0.405.

Take CGAAUAGAUCAAGUGAGACTT against Spata19: the z-score was inactive: -1.24.

With GGACCUGGUUAAGAUAUGUTT against Pmch, the z-score is inactive: 0.628.

Consider CCGGGAUAACGACCCUAAUTT against Polr2c, for which the z-score is inactive: -0.654.

Regarding GGAUUCAGAAGCAGCAACATT against Nr1h2, the z-score is active: -2.29.

Consider GGCUGAUAAAAGUUUCAGATT against C9, for which the z-score is inactive: 0.59.

Turning to “GGAUCACGGUCUACAAUAATT against 1700009J07Rik”, the z-score was inactive: 0.214.

For GUAUGUUCAUAUGGUUUUCTT against Swi5, the z-score is active: 2.33.

UCAGGUCGCUGCUAAACUCTT against Ccdc57: the z-score is inactive: -1.26.

For GGGCAGUGCCUAUUUGAACTT against Cyp4f18, the z-score was inactive: 0.877.

Consider GGCUAUGGUGAAAUAAACGTT against Nufip2, for which the z-score was inactive: 0.368.

In the case of GGGAAAGGAGGACAAAGAGTT against Gip, the z-score is inactive: 0.374.

Consider GGGAGGGUCUAUUGUUAAUTT against Cbr4, for which the z-score was inactive: 1.91.

With GGCUUUUCAGCAGGUUUAATT against Ube2g1, the z-score was active: 5.04.

For the sequence GGAAGAAGCAACCACAUUCTT against Evl, the z-score is inactive: 0.898.

As for CCUAUUAUAGGACAAAGUATT against Efhc2, the z-score is inactive: -0.54.

As to GGCUUCCAUCCUUUCUUUGTT against Ilf2, the z-score is inactive: 0.167.

On to GGAGUGGACUCACGUCUAATT against Med23, for which the z-score is inactive: 0.717.

Take CCUCAAUUGGAUAAAGAAGTT against Gzma: the z-score is inactive: 1.7.

With GGAGUUCACCACUAUCAAGTT against Spata2l, the z-score is inactive: 1.6.

For the sequence CGAUGUUGAGGGAUUAUCUTT against Tstd2, the z-score is active: -2.25.

As for GCGACUCACUAUUUGGGCATT against Ell3, the z-score is inactive: 0.471.

CCCACUAAUAGCACUGUCCTT against Olfr746: the z-score was inactive: -0.00888.

As for GUCCUAAAACGAGUGAGAGTT against Trib3, the z-score was inactive: -0.793.

For the sequence GGAAGUGGCCUUAAAGUAUTT against Arhgef37, the z-score was inactive: -1.67.

Consider GGGAAAUUAUCGCUUUAUGTT against Invs, for which the z-score was inactive: -0.881.

As for GGGAGAAGAUCUAAUUCAATT against Cd34, the z-score is inactive: 0.795.

GCUAUUGUGGUAUGGAUUATT against Il2ra: the z-score is inactive: 1.68.

As for GGAGAUAGACAUGCCUUUCTT against Lyrm7, the z-score was inactive: 0.0684.

For the sequence GCGGAUUUACACCUUAUCUTT against Bpi, the z-score is inactive: -1.15.

Take GCUUAUGUCGAAUGAUAGCTT against Id2: the z-score is active: -4.22.

Turning to “GCAGUUUGGUCACCUACCATT against 4930583K01Rik”, the z-score is inactive: -0.137.

Turning to GCGAAAACUUCGGAUCUAUTT against Smarcd2, the z-score was inactive: 1.29.

For the sequence GCAGAAGUCAGUCAUGAAUTT against Fbf1, the z-score was inactive: -1.14.

Regarding GCAGUUAACUACGUUGCAATT against Zranb2, the z-score is inactive: -0.44.

Turning to CCUCUGUGAUCCCUAAGAATT against Ubd, the z-score was inactive: -0.218.

On to CCACAAGGUUCACAGAAAUTT against Calhm2, for which the z-score is inactive: 0.366.

Take GGAAUAUGCCCAAGUUUUUTT against Ctnna1: the z-score is active: 2.86.

Regarding CCAUCAGGUUGACGACUUUTT against Olfr90, the z-score is inactive: -0.833.

As for GGUGAAAAGGUUGAUGUCATT against Spertl, the z-score was inactive: -0.368.

With GCCAACAACAUCUGUUUCUTT against Fam20c, the z-score was inactive: 1.09.

Take CCCUGUUAUUAUCUUGAUUTT against Arv1: the z-score was inactive: -1.16.

As to ACCAGCACGACAGAUGCUATT against Pla2g12a, the z-score was active: 3.15.

Consider GGAAUCUAUAAAGGAGACCTT against Tmed2, for which the z-score was inactive: 0.344.

As to GCUUAAGAUUGGAAUACUATT against Phf20l1, the z-score was inactive: 0.525.

In the case of CCUAACACCAGGAACCAAATT against Upk2, the z-score is inactive: -0.98.

GGAACUGUUAGAAAAUGGATT against Sh2d3c: the z-score was inactive: -0.163.

With GGAAAAACAAACCUAGCAUTT against Ets1, the z-score was inactive: 0.592.

For GGAGGUGACUGUUCUUAGATT against Haus1, the z-score was inactive: 1.16.

Take GUAGAGAAGGAAGAGUGCCTT against Fshb: the z-score was inactive: 0.499.

As for GCUAAUACACCUUAUGAGATT against Ube2t, the z-score is inactive: 0.0183.

In the case of CCGGUAUUGCUGUUCCUGGTT against Agxt, the z-score was inactive: 1.26.

For the sequence GGUCAGAUGCAGUGCAAGATT against Cldn4, the z-score was inactive: 0.539.

Take GGUUAAGAGUAUCGUCAGCTT against Katnal1: the z-score is inactive: -0.76.

Turning to GCAUGAUGAUGGAGACCGATT against Sox1, the z-score was inactive: -1.06.

As to GUGAUUAGCCGAAAGGGCUTT against Olfr1032, the z-score was inactive: -0.171.

As for GGGAGUAUGGAAAACUGCATT against Bin3, the z-score was inactive: 0.0398.

Turning to GGAAGCAGAAGCUAAAGUGTT against Ubap1, the z-score was active: 2.11.
